The text below walks through data of PubChem BioAssay AID493014 (National Center for Advancing Translational Sciences (NCATS), 2011).

By AC50 is commonly meant the midpoint of the concentration-response curve, whichever way the signal moves.

Molecules are shown by their SMILES. The list shows a part of the results. These are further read-outs of the screen, such as a control signal, another cell line or another target. No call is given for them. Most of these compounds were active or inconclusive in the main read-out, so they are no random draw. The note in brackets gives the kind of curve behind each potency; many fits are weak.

The nature of the assay: qHTS Assay to Find Inhibitors of Chronic Active B-Cell Receptor Signaling. The note with it: ABC-DLBCL IkBa-CBG/CBR reporter, luminescence ratio (green luciferase fused to IkBa over red control in TMD8 lymphoma cells), 4 h; measured here: CBR red luminescence, cell number. The source says: NIH Molecular Libraries Probe Production Network [MLPCN] NIH Chemical Genomics Center [NCGC] MLPCN Grant: 1 R03 DA031086-01A1 PI Name: Dr. R. Eric Davis NCGC Assay Overview: Diffuse large B-cell lymphoma (DLBCL) is the most common category of non-Hodgkin lymphoma, with ~20,000 new cases per year in the United States. DLBCL should be regarded as a collection of different neoplasms. Microarray gene expression analysis has defined two principal types of DLBCL, named for their similarity to normal B cell stages or activation states: a germinal center B-cell (GCB) type, and an activated B-cell (ABC) type. In ABC-DLBCL, a constitutive high-level activity of the NF-kappaB family of transcription factors has been observed (1) and NF-kappaB target genes are more highly expressed in ABC primary tumors than in GCB tumors. Functional studies have shown a constitutive high-level activity of the IkappaB (inhibitor of kappa-B) kinase (IKK) complex. […] Further analysis of DLBCL primary tumors for NF-kappaB target gene expression imply that although CARD11 is required for constitutive IKK activity in all ABC-DLBCL lines, mutations in CARD11 may be the root cause of IKK activation only in lines or tumors with such mutations. In other words, CARD11 mutations may explain NF-kappaB activation in only 10% of ABC-DLBCL cases. […] This process has been termed 'chronic active BCR signaling' (CABS). The goal of this screen is to find small-molecule inhibitors of the CABS pathway found in ABC-DLBCL lines using a cell-based assay that measures IkappaBalpa stability, which has already been extensively validated in the OCI-Ly3 line (PubChem AID:445; REF: 4). […] The assay uses green (CBG68) and red (CBR) emitting beetle luciferases [Chroma-GloTM developed by Promega Corp.] where the green luciferase is fused to IkappaBalpha and the red luciferase is present in its native state. Both luciferase genes are stably present in the TMD8 human ABC DLBCL cell line, but their expression is under the control of tetracycline-inducible promoters. Following the addition of doxycycline to induce expression of the luciferases, the green luminescence in control cultures rises only slowly because the CBG fusion partner IkappaBalpha is targeted by IKK activity for rapid degradation. In contrast, green luminescence rises rapidly in the presence of proteasome inhibitors or IKK inhibitors. The rise in red luminescence of CBR is not affected by proteasome or IKK inhibitors, and serves as normalization for cell number and nonspecific effects. Compounds were screened as a concentration-titration series that ranged from 46 uM to 3 nM.
NCGC Assay Protocol Summary: Cells were seeded in 1536-well plates at 5000 cells/4uL in IMDM medium containing 0.5% FBS, w/o phenol red, 1% penicillin/streptomycin. Then, 23 nL of compounds or DMSO were delivered to each well using a pin tool. One uL 20ng/ml doxycycline was then dispensed into white solid 1536-well plates and the plates were incubated at 37C/5% C02 in a cell incubator for 4 hrs. Then 4 uL luminescent substrate mix (in-house prepared: 150 mM Tris-Cl, pH 7.6, 3 mM MgCl2, 1% Triton X-100, 5 mM DTT, 0.2 mM CoA, 0.15 mM ATP, 5 mM D-luciferin, final concentrations) was added to each well. The plate was incubated at r.t. for 10-15 min. The plates were measured on a ViewLux plate reader for green luminescence (540/20 nm filter) and red luminescence (618/8 nm filter). The green and red luminescent signals were corrected for red and green luminescence filter overlap using previously determined filter calibration constants (determined using the procedure outlined in the Promega Technical Manual; REF 4). The %Activity was determined from the ratio of corrected green/red luminescent values. MG132 were used as control. […] Red luminescent %Activity was normalized to the difference between red luminesence in basal cells (0%Activity) and zero luminescence (-100% Activity). […]
As for `O=C1c2ccccc2C(=O)N1CC(O)Cn1nnc2ccccc21` (configuration not stated), the AC50 was 5.17 µM [rising, partial curve, poor fit].
The result for `COCC(=O)NC1(c2nnnn2CCOC(=O)Nc2ccc(Cl)cc2)CCCCC1` reads 10 µM [rising, partial curve, poor fit]; that for `COC(=O)c1ccc(S(=O)(=O)c2ccccc2)c(N)c1`, 6.51 µM [falling, single point]; that for `Cc1ccc(C(=O)NC(=S)Nc2ccc(N3CCOCC3)cc2)cc1`, 31.6 µM [rising, single point].
The result for `Cc1nn(Cc2cccc(F)c2)c(C)c1NC(=O)c1ccc(COc2ccccc2Cl)cc1` reads 9.2 µM [falling, partial curve, poor fit]; that for `COc1ccc(-n2c(=O)c3ccccc3n(CC(=O)c3ccccc3)c2=O)cc1OC`, 6.31 µM [rising, partial curve, poor fit].
The result for `COC(=O)c1ccc(NC(=S)NC2CCCCC2)cc1` reads 3.55 µM [rising, single point].
Turning to `Cc1ccc(S(=O)(=O)N(C)C)cc1NC(=O)COC(=O)CCNS(=O)(=O)c1ccccc1`, the AC50 was 29.1 µM [rising, single point].
Take `O=C(/C=C/c1ccco1)Nc1ccccc1N1CCOCC1`: the AC50 was 3.66 µM [rising, full curve, poor fit].
As for `COc1cc(Br)cc(/C=N/c2ncn[nH]2)c1O`, the AC50 is 16.4 µM [falling, single point].
The result for `CCOc1ccc(/C=N/Nc2ccccn2)cc1` reads 6.31 µM [rising, full curve, poor fit].
In the case of `COC(=O)[C@H](CCSC)NC(=O)NCCc1ccccc1F`, the AC50 is 0.082 µM [rising, full curve, poor fit].
The result for `Cc1c(C)c2ccc(OCC(=O)Nc3ccccn3)cc2oc1=O` reads 0.316 µM [rising, full curve, poor fit]; that for `CC1CCCN(C(=O)CNC(=O)c2cccs2)C1` (configuration not stated), 18.4 µM [falling, single point].
In the case of `CCN(CC)c1nc2ccccc2nc1C(=O)Nc1ccc(C(C)=O)cc1` it was 14.1 µM [falling, partial curve, poor fit]; in that of `Cc1cc(C(=O)Nc2ccccc2C(=O)N2CCCCC2)ccc1[N+](=O)[O-]`, 15.8 µM [rising, single point].
The result for `Nc1c2c(nn1-c1ccccc1)CCC2` reads 14.1 µM [falling, single point]; that for `NC(=O)C1CCN(C(=O)Cc2ccc(-c3ccccc3)cc2)CC1`, 0.562 µM [falling, full curve, poor fit].
`O=C1Oc2ccccc2C(=O)/C1=C\N1CCN(c2ccccc2)CC1`: the AC50 is 4.47 µM [falling, full curve].
In the case of `Cc1ccc(-n2nnnc2SCC(=O)Nc2ccccc2-c2ccccc2)cc1C` it was 3.26 µM [rising, partial curve, poor fit]; in that of `Cc1c(NC(=O)C(=O)/C=C(/O)c2ccccc2)c(=O)n(-c2ccccc2)n1C`, 6.51 µM [rising, single point]; in that of `C/C=C/c1ccc(OCC(=O)O)c(OC)c1`, 5.62 µM [rising, partial curve, poor fit].
In the case of `O=C(N/N=C/c1c[nH]c2ccccc12)c1ccn(Cc2ccc(Cl)cc2Cl)n1` it was 7.94 µM [falling, partial curve].
In the case of `COCCCNC(=O)c1cc(Nc2ccc(OC)cc2OC)nc2ccccc12` it was 11.2 µM [falling, single point].
For the compound `O=C(O)c1cccc(-c2ccc(/C=N/NC(=O)c3cccnc3)o2)c1`, the AC50 is 9.2 µM [falling, partial curve].
The result for `CCC(=O)N1N=C(c2ccc(NS(=O)(=O)c3ccccc3)cc2)CC1c1ccco1` (configuration not stated) reads 3.26 µM [rising, partial curve]; that for `N#CC(C(=O)c1ccccc1Cl)=C1SCCCS1`, 20 µM [rising, partial curve, poor fit]; that for `O=C(/C=C/c1cccc([N+](=O)[O-])c1)Nc1cccc(NC(=O)c2ccco2)c1`, 1.84 µM [falling, full curve].
As for `CCC(=O)Nc1nnc(-c2ccc(Cl)s2)o1`, the AC50 is 10 µM [falling, single point].
In the case of `CC1=C(C)CC(C(=O)NCc2ccc3c(c2)OCO3)C(C(=O)O)C1` (configuration not stated) it was 6.51 µM [rising, single point]; in that of `CCn1c(CCCOc2ccc(Cl)cc2Cl)n[nH]c1=S`, 5.62 µM [rising, partial curve, poor fit].
The result for `CCOC(=O)c1c(-c2ccccc2)cn2ccccc12` reads 12.6 µM [rising, partial curve, poor fit]; that for `CCn1c(=O)cc(OCC(=O)NCc2ccc(C)o2)c2ccccc21`, 2.31 µM [rising, partial curve, poor fit].
The result for `COc1cccc(CN(C)C(=O)c2ccc3c(=O)n4c(nc3c2)CCC4)c1` reads 20.6 µM [falling, partial curve, poor fit]; that for `O=C(O)c1cccc2sc3cc(Cl)ccc3c(=O)c12`, 23.1 µM [rising, single point]; that for `O=C(OCc1nc2scc(-c3ccccc3)c2c(=O)[nH]1)c1cc([N+](=O)[O-])ccc1Cl`, 29.1 µM [falling, single point].
Regarding `C=C(C)c1ccc(C(C)(C)NC(=O)N(Cc2ccccc2)Cc2ccco2)cc1`, the AC50 is 29.1 µM [rising, single point].
With `COc1cccc2cc(C(C)N(CCCN3CCOCC3)C(=S)Nc3ccc(C)c(C)c3)oc12` (configuration not stated), the AC50 was 22.4 µM [falling, single point].
As for `CCOc1cccc2cc(C(=O)N3CCc4ccccc4C3)c(=O)oc12`, the half-maximal activity concentration (AC50) was 8.2 µM [falling, partial curve, poor fit].
As to `CC(C)N(C(=O)C1CC(=O)OC12CCCCC2)C(C)C` (configuration not stated), the AC50 is 2.06 µM [falling, partial curve].
As to `COc1cc(CN2CCNC(=O)C2CC(=O)NCc2csc(C(C)C)n2)cc(OC)c1` (configuration not stated), the AC50 was 35.5 µM [falling, single point].
In the case of `CCOC(=O)Cc1csc(NC(=O)c2sc3nc4ccc(C)cc4cc3c2N)n1` it was 11.2 µM [falling, partial curve, poor fit].
